# ± gives the standard deviation of the averaged measurements. The list shows a part of the results.
# How the values were obtained:
# Experiment in all cases: NP40-soluble protein abundance relative to vehicle (solubility fold change) (ratio); higher = more soluble protein in presence of GTP
# [1] = target: T1, ARHGAP1 (UniProt Q07960)
# T1 sequence (whole entry): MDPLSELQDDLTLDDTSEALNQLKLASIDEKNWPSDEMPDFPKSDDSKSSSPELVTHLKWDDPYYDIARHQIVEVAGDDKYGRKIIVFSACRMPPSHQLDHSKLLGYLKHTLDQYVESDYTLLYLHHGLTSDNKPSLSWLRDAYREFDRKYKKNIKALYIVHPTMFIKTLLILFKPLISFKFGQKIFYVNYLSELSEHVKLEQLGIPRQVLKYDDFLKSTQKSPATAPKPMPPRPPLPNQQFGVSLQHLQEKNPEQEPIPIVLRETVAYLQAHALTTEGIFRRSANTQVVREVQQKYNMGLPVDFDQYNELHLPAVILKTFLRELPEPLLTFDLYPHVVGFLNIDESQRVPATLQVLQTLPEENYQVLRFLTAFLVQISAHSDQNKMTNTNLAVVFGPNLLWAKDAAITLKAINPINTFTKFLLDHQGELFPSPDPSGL
# Outline: (§1)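 Each value is a fold change relative to the detergent-processed vehicle, calculated per replicate from vsn-normalised intensities. Jurkat crude lysate received eight concentrations (0.1 to 10 mM) for 10 min at room temperature and 3 min at 37 °C, then was solubilised in 0.8% NP40 with benzonase (60 min, 4 °C). The ultracentrifuged supernatant was TMT-labelled and run by LC-MS/MS in three independent experiments.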
# [2] = target: T2, GALE (UniProt Q14376)
# T2 sequence (whole entry): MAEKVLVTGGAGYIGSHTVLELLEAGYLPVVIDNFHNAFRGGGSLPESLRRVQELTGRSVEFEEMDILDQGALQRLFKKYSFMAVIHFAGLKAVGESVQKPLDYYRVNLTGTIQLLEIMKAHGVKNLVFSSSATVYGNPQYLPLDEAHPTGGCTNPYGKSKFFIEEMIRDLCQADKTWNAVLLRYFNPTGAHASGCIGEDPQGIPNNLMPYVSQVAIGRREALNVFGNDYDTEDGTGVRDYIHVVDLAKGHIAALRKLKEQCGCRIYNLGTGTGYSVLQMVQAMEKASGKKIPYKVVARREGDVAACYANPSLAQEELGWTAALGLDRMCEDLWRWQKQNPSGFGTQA
# Outline: as §1
# [3] = target: T3, IRF3 (UniProt Q14653)
# T3 sequence (whole entry): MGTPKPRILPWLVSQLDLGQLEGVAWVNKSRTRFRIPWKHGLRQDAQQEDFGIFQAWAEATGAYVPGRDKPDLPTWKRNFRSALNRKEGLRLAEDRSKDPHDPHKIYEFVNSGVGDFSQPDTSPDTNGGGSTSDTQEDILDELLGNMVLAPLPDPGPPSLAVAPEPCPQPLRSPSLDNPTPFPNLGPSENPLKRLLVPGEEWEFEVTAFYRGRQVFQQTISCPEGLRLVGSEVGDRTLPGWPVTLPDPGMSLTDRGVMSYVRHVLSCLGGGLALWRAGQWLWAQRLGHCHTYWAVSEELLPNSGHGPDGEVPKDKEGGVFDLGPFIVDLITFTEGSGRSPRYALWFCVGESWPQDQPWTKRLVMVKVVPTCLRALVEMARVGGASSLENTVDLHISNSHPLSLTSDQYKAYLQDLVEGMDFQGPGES
# Outline: as §1
# [4] = target: T4, LAGE3 (UniProt Q14657)
# T4 sequence (whole entry): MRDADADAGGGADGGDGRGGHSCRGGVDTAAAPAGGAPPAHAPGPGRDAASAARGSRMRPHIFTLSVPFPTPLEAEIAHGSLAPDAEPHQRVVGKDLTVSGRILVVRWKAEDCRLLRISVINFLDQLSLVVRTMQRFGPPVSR
# Outline: as §1
# [5] = target: T5, MLLT11 (UniProt Q13015)
# T5 sequence (whole entry): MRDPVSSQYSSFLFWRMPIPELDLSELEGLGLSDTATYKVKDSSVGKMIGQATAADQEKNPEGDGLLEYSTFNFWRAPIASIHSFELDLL
# Outline: as §1
# [6] = target: T6, PURA (UniProt Q00577)
# T6 sequence (whole entry): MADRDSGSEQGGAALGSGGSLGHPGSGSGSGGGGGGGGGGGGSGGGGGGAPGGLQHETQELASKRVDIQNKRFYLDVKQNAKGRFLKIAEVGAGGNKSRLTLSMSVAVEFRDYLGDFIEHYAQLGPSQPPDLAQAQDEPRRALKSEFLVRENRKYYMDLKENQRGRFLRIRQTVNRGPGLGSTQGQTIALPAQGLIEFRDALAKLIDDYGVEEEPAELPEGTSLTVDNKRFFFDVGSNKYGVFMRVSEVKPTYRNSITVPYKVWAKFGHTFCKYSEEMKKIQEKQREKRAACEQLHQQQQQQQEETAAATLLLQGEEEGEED
# Outline: as §1
structure (smiles),measurement,setting,value
Nc1nc2c(ncn2[C@@H]2O[C@H](COP(=O)(O)OP(=O)(O)OP(=O)(O)O)[C@@H](O)[C@H]2O)c(=O)[nH]1 [guanosine triphosphate],NP40-soluble protein abundance,[1]; concentration: 0.1mM,0.963 ± 0.015
same,NP40-soluble protein abundance,[1]; concentration: 0.5mM,0.961 ± 0.012
same,NP40-soluble protein abundance,[1]; concentration: 1mM,0.952 ± 0.011
same,NP40-soluble protein abundance,[1]; concentration: 2mM,0.93 ± 0.045
same,NP40-soluble protein abundance,[1]; concentration: 4mM,0.942 ± 0.042
same,NP40-soluble protein abundance,[1]; concentration: 6mM,0.911 ± 0.037
same,NP40-soluble protein abundance,[1]; concentration: 8mM,0.867 ± 0.06
same,NP40-soluble protein abundance,[1]; concentration: 10mM,0.908 ± 0.064
same,NP40-soluble protein abundance,[2]; concentration: 0.1mM,1 ± 0.042
same,NP40-soluble protein abundance,[2]; concentration: 0.5mM,1.01 ± 0.013
same,NP40-soluble protein abundance,[2]; concentration: 1mM,0.957 ± 0.031
same,NP40-soluble protein abundance,[2]; concentration: 2mM,0.97 ± 0.038
same,NP40-soluble protein abundance,[2]; concentration: 4mM,0.937 ± 0.063
same,NP40-soluble protein abundance,[2]; concentration: 6mM,0.932 ± 0.026
same,NP40-soluble protein abundance,[2]; concentration: 8mM,0.906 ± 0.081
same,NP40-soluble protein abundance,[2]; concentration: 10mM,0.919 ± 0.11
same,NP40-soluble protein abundance,[3]; concentration: 0.1mM,0.98 ± 0.044
same,NP40-soluble protein abundance,[3]; concentration: 0.5mM,0.984 ± 0.051
same,NP40-soluble protein abundance,[3]; concentration: 1mM,0.974 ± 0.043
same,NP40-soluble protein abundance,[3]; concentration: 2mM,0.946 ± 0.053
same,NP40-soluble protein abundance,[3]; concentration: 4mM,0.923 ± 0.13
same,NP40-soluble protein abundance,[3]; concentration: 6mM,0.919 ± 0.08
same,NP40-soluble protein abundance,[3]; concentration: 8mM,0.909 ± 0.1
same,NP40-soluble protein abundance,[3]; concentration: 10mM,0.935 ± 0.079
same,NP40-soluble protein abundance,[4]; concentration: 0.1mM,1.09 ± 0.084
same,NP40-soluble protein abundance,[4]; concentration: 0.5mM,0.835 ± 0.023
same,NP40-soluble protein abundance,[4]; concentration: 1mM,1.02 ± 0.052
same,NP40-soluble protein abundance,[4]; concentration: 2mM,0.923 ± 0.059
same,NP40-soluble protein abundance,[4]; concentration: 4mM,0.912 ± 0.049
same,NP40-soluble protein abundance,[4]; concentration: 6mM,0.864 ± 0.039
same,NP40-soluble protein abundance,[4]; concentration: 8mM,0.834 ± 0.066
same,NP40-soluble protein abundance,[4]; concentration: 10mM,0.897 ± 0.1
same,NP40-soluble protein abundance,[5]; concentration: 0.1mM,0.904 ± 0.025
same,NP40-soluble protein abundance,[5]; concentration: 0.5mM,1.01 ± 0.065
same,NP40-soluble protein abundance,[5]; concentration: 1mM,1.43 ± 0.074
same,NP40-soluble protein abundance,[5]; concentration: 2mM,1.5 ± 0.15
same,NP40-soluble protein abundance,[5]; concentration: 4mM,1.46 ± 0.28
same,NP40-soluble protein abundance,[5]; concentration: 6mM,1.36 ± 0.13
same,NP40-soluble protein abundance,[5]; concentration: 8mM,1.35 ± 0.089
same,NP40-soluble protein abundance,[5]; concentration: 10mM,1.38 ± 0.2
same,NP40-soluble protein abundance,[6]; concentration: 0.1mM,0.976 ± 0.019
same,NP40-soluble protein abundance,[6]; concentration: 0.5mM,0.948 ± 0.013
same,NP40-soluble protein abundance,[6]; concentration: 1mM,0.944 ± 0.05
same,NP40-soluble protein abundance,[6]; concentration: 2mM,0.906 ± 0.026
same,NP40-soluble protein abundance,[6]; concentration: 4mM,0.913 ± 0.064
same,NP40-soluble protein abundance,[6]; concentration: 6mM,0.913 ± 0.043
same,NP40-soluble protein abundance,[6]; concentration: 8mM,0.908 ± 0.059
same,NP40-soluble protein abundance,[6]; concentration: 10mM,0.913 ± 0.043

# Reprinted at random: 2 entries already listed.
structure (smiles),measurement,setting,value
Nc1nc2c(ncn2[C@@H]2O[C@H](COP(=O)(O)OP(=O)(O)OP(=O)(O)O)[C@@H](O)[C@H]2O)c(=O)[nH]1 [guanosine triphosphate],NP40-soluble protein abundance,[1]; concentration: 8mM,0.867 ± 0.06
same,NP40-soluble protein abundance,[2]; concentration: 0.1mM,1 ± 0.042
